# For at least one compound, name, drawing or mass did not settle the structure.
# Test system: DT22 triple negative human breast tumor xenografts
# Assay: DT22 triple negative breast tumor xenografts in NSG mice
# Type: in vivo, mouse
# Experimental: In vivo breast cancer xenograft studies For examination of the growth of triple-negative DT22 breast tumors, intact female NOD/SCID-gamma (NSG) mice were used. DT-22 cells (1×10^6 cells/mouse) were injected s.c. into the right axial mammary gland. Mice received s.c. injection or oral gavage daily or every second or third day, as indicated, with vehicle or FOXM1 inhibitor compound, and tumor growth was monitored over time.
smiles,measurement,setting,value
"C[N+]1(CCCCCCOc2ccc(C(c3ccc(OCCCCCC[N+]4(C)CCCCC4)cc3)=C3C4C[C@H]5C[C@@H](C4)C[C@H]3C5)cc2)CCCCC1 [NB-71, 1,1′-((((((5r,7r)-adamantan-2-ylidene)methylene)bis(4,1-phenylene))bis(oxy))bis(hexane-6,1-diyl))bis(1-methylpiperidin-1-ium) diodide]","Tumor growth in vivo, low doses",5 or 10 mg/kg s.c. every second or third day,greatly suppress tumor growth
same,Growth of DT22 tumor xenografts,"s.c., 20 mg/kg every other day for first 10 days then 10 mg/kg every other day",greatly suppress tumor growth

# From US12187662B2, “FOXM1 inhibitor compositions and methods of using the same” (The Board of Trustees of the University of Illinois, priority 2018, dated 2025)
